In the supplement of paper PMC10338343:
± gives the standard deviation. The list shows a part of the results, in another mix than the full data. The uncertainty is large for many entries. The list shows a part of the results.

What was measured:
[1] = test system: MIWI (PIWIL1) piRISC loaded with L1MC piRNA (30 nt); assay: pre-steady-state target cleavage rate (min^-1); higher = faster piRNA-guided slicing of the target; settings: guide: L1MC piRNA 5'p-UAACUAAAUACUAUGCAAGCUGUAGGUCCU;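 also: 1 nM active piRISC with 0.1 nM target library at 33 °C single turnover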
How it was run: (§1)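 The pre-steady-state cleavage rate was calculated from a burst-and-steady-state fit. Data came from Cleave-'n-Seq, in which […] transcribed, DNA-blocked target RNA library was mixed with 1 nM active affinity-purified piRISC carrying one synthetic guide, with or without 500 nM GTSF1 partner protein, in HEPES–potassium acetate buffer at 33 °C for 0–8 or 0–960 min. Uncleaved targets were sequenced and normalised to depth and to weakly complementary targets, three trials were pooled, and k3 was capped at 0.0001 min^-1.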

[2] = test system: EfPiwi piRISC loaded with L1MC piRNA (26 nt); assay: pre-steady-state target cleavage rate (min^-1); guide: L1MC piRNA 5'p-UAACUAAAUACUAUGCAAGCUGUAGG; MIWI and MILI are mouse PIWI proteins and EfPiwi is from a freshwater sponge; tags in brackets are library labels; higher = faster piRNA-guided slicing of the target
How it was run: as §1

[3] = auxiliary factor: none (no GTSF1)
[4] = auxiliary factor: 500 nM Ephydatia muelleri Gtsf1
[5] = auxiliary factor: none (no Gtsf1)
[6] = auxiliary factor: 500 nM mouse GTSF1

Row | Sequence | pre-steady-state target cleavage rate [1, 3] | pre-steady-state target cleavage rate [2, 4] | pre-steady-state target cleavage rate [2, 5] | pre-steady-state target cleavage rate [1, 6]
1 | UCCUGGAUGUGGUUGCAUAGUAUAUAGUUA | 0.00243 ± 0.0046 | 0.00747 ± 0.0056 | 0.000612 ± 0.022 | –
2 | UCCUGGAUGUCGUUGCAUCGUAUUUAGUUA | 0.00124 ± 0.0067 | 0.00198 ± 0.004 | 0.000319 ± 0.018 | –
3 | UCCUGGAUGUGCUUGCAUUCUAUUUAGUAA | 0.000704 ± 0.0067 | 0.000288 ± 0.019 | 0.00011 ± 0.062 | 0.00164 ± 0.0083
4 | UCCUGGAUGUCGAUGCAAAGUAUUUAGAUA | 0.000517 ± 0.012 | 0.000228 ± 0.017 | 0.000517 ± 0.016 | –
5 | UCCUGGAUGUCGAUGCAGUAGUAUUUAGUUA | 0.000405 ± 0.019 | 0.000762 ± 0.012 | < 0.0001 | –
6 | UCCUGGAUGUCCUUGCAUACAUUUUAGUUA | 0.000739 ± 0.0075 | 0.000604 ± 0.0084 | 0.000256 ± 0.027 | 0.00159 ± 0.008
7 | UCCUGGUACAGCUUGCAUAGUAAAUACAAA | 0.00105 ± 0.0053 | 0.00108 ± 0.0031 | 0.000161 ± 0.045 | –
8 | UCCUGGAUGUGCUACGAUAGUAUUUAGUUA | 0.00104 ± 0.0066 | 0.000582 ± 0.0084 | 0.000231 ± 0.033 | 0.000885 ± 0.013
9 | UCCUGGAACAGCUUGCAUAGAUUUUAGUAA | 0.00217 ± 0.0042 | 0.00282 ± 0.0032 | 0.000969 ± 0.011 | –
10 | UCCUGGAUCAGCAUUGCAUAGUAUUUAGUUA | 0.0165 ± 0.0047 | 0.0605 ± 0.015 | 0.00139 ± 0.006 | 0.875 ± 0.036
11 | UCCUGGAACAGGAUGCAUAGUAUUUAGUAA | 0.00174 ± 0.0028 | 0.0055 ± 0.0028 | 0.000325 ± 0.013 | –
12 | UCCUGGAUGUCGAAGGAUAGUAUUAAGUUA | 0.000224 ± 0.026 | < 0.0001 | < 0.0001 | –
13 | UCCUGGUACAGCAUGCAUAGUAUUUACAAA | 0.00151 ± 0.0053 | 0.00193 ± 0.0023 | 0.00025 ± 0.034 | –
14 | UCCUGGAUGUCGUUGCAUAGUACUUUAGUUA | – | 0.000363 ± 0.01 | 0.000514 ± 0.016 | 0.000491 ± 0.018
15 | UCCUGGAUGAGCUUGCAUUCUAUUUAGAAA | 0.0005 ± 0.016 | 0.000784 ± 0.0046 | 0.000711 ± 0.0085 | 0.00163 ± 0.0091
16 | UCCUGGAUGUGCUUGCUAGUAUUUAGUUA | 0.0014 ± 0.0044 | 0.00131 ± 0.0068 | 0.000513 ± 0.018 | 0.00196 ± 0.0053
17 | UCCUCCUACAGCUUGCAUGAGUAUUUAGUUA | 0.000784 ± 0.0082 | 0.00215 ± 0.0028 | 0.000495 ± 0.012 | –
18 | UCCUGGAACAGCUAGCAUAGAAUUUAGUUA | 0.0115 ± 0.0043 | 0.00214 ± 0.0023 | 0.00111 ± 0.0065 | 0.209 ± 0.02
19 | UCCUGGAUGUCGAAGUAUAGUAUUUAGUUA | 0.000847 ± 0.0055 | 0.00156 ± 0.0053 | 0.000605 ± 0.013 | 0.00237 ± 0.0037
20 | UCCUGGAUGUCGUUGCAUAGUAUUUUCAUA | 0.000438 ± 0.019 | 0.000209 ± 0.023 | 0.000422 ± 0.019 | 0.000278 ± 0.032
21 | UCCUGGAUGUCCAUGCAUAGUAUUUAGAUA | 0.00154 ± 0.0054 | 0.000499 ± 0.011 | < 0.0001 | 0.00405 ± 0.0043
22 | UCCUGGAUGUCGAUGCAUAGUUUUUAGUUA | 0.00133 ± 0.0055 | 0.00191 ± 0.0028 | 0.00052 ± 0.011 | 0.00155 ± 0.0056

Another view of part of the listing above:
Row	Sequence	pre-steady-state target cleavage rate [1, 3]	pre-steady-state target cleavage rate [2, 4]	pre-steady-state target cleavage rate [2, 5]	pre-steady-state target cleavage rate [1, 6]
7	UCCUGGUACAGCUUGCAUAGUAAAUACAAA	0.00105 ± 0.0053	0.00108 ± 0.0031	0.000161 ± 0.045	–
13	UCCUGGUACAGCAUGCAUAGUAUUUACAAA	0.00151 ± 0.0053	0.00193 ± 0.0023	0.00025 ± 0.034	–
16	UCCUGGAUGUGCUUGCUAGUAUUUAGUUA	0.0014 ± 0.0044	0.00131 ± 0.0068	0.000513 ± 0.018	0.00196 ± 0.0053
17	UCCUCCUACAGCUUGCAUGAGUAUUUAGUUA	0.000784 ± 0.0082	0.00215 ± 0.0028	0.000495 ± 0.012	–
21	UCCUGGAUGUCCAUGCAUAGUAUUUAGAUA	0.00154 ± 0.0054	0.000499 ± 0.011	< 0.0001	0.00405 ± 0.0043
